Some of these results come from one statement about several compounds together.
Molecular target: T1, purified recombinant Cdc25-C enzyme (MBP-Cdc25C protein) (Homo sapiens, UniProt P30307)
T1 construct: made in house
T1 sequence (P30307 1-473): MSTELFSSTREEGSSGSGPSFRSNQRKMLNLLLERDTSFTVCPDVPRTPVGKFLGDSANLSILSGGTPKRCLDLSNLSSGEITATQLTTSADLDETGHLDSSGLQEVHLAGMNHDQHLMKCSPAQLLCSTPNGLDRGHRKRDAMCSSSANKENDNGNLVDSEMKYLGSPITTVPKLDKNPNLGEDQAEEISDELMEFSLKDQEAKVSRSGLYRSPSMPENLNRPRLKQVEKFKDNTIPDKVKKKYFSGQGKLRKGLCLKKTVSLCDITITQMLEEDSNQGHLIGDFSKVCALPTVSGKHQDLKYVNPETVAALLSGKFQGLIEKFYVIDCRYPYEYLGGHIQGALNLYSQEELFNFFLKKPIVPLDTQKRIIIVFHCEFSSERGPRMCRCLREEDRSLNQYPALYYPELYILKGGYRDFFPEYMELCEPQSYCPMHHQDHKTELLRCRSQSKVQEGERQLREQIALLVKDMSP
Test: Phosphatase activity of the purified recombinant Cdc25C enzyme (OMFP dephosphorylation, fluorescence)
Format: biochemical
Settings: OMFP 500 μM, 4 hours at 30° C.
Description: The phosphatase activity of the MBP-Cdc25C protein is evaluated through its dephosphorylation of 3-O-methylfluorescein-phosphate (OMFP) to form 3-O-methylfluorescein (OMF), determining the fluorescence of the reaction product at 475 nm. This assay can be used to identify inhibitors of the recombinant Cdc25 enzyme. The preparation of the MBP-Cdc25C fusion protein is described in patent application PCT WO 01/44467.
The reaction is performed in 384-well plates in a final volume of 50 μl. The MBP-Cdc25C protein (prepared as described hereinabove) is stored in the following elution buffer: 20 mM Tris-HCl pH 7.4; 250 mM NaCl; 1 mM EDTA; 1 mM dithiothreitol (DTT); 10 mM maltose. It is diluted to a concentration of 60 μM in the following reaction buffer: 50 mM Tris-HCl pH 8.2; 50 mM NaCl; 1 mM DTT; 20% glycerol. The background noise is determined using with the buffer without addition of the enzyme. The products are tested at decreasing concentrations from 40 μM. The reaction is initiated by the addition of a solution OMFP to a final concentration of 500 μM (prepared immediately before use from a 12.5 mM stock solution in 100% DMSO (Sigma #M2629)). After 4 hours at 30° C. in a disposable 384-well plate, the fluorescence measured at OD 475 nm is read on a Victor^2 plate reader (EGG-Wallac). The concentration that produces 50% inhibition of the enzyme reaction is calculated from three independent experiments. Only the values that fall within the linear part of the sigmoid curve are used for the linear regression analysis.

SMILES | IC50 [µM]
CN(CCNC(=S)Nc1cccnc1)CCNc1cc(N2CCCC2)nc(N2CCCC2)n1 [Example 26, N-{2-[{2-[(2,6-dipyrrolidin-1-ylpyrimidin-4-yl)amino]ethyl}(methyl)amino]ethyl}-N′-pyridin-3-ylthiourea] | ≤ 10
CN(CCNC(=O)Nc1ccc(Cl)c(C(F)(F)F)c1)CCNc1cc(N2CCCC2)nc(N2CCCC2)n1 [Example 7, N-[4-chloro-3-(trifluoromethyl)phenyl]-N′-{2-[{2-[(2,6-dipyrrolidin-1-ylpyrimidin-4-yl)amino]ethyl}(methyl)amino]ethyl}urea] | ≤ 10
CC(Oc1ccccc1)C(=O)NCCN(C)CCNc1cc(N2CCCC2)nc(N2CCCC2)n1 (stereo not drawn) [Example 84, N-{2-[{2-[(2,6-dipyrrolidin-1-ylpyrimidin-4-yl)amino]ethyl}(methyl)amino]ethyl}-2-phenoxypropanamide] | ≤ 10
CN(CCNC(=O)C1CCN(c2nccc(C(F)(F)F)n2)CC1)CCNc1cc(N2CCCC2)nc(N2CCCC2)n1 [Example 86, N-{2-[{2-[(2,6-dipyrrolidin-1-ylpyrimidin-4-yl)amino]ethyl}(methyl)amino]ethyl}-1-[4-(trifluoromethyl)pyrimidin-2-yl]piperidine-4-carboxamide] | ≤ 10
CN(CCNC(=S)Nc1ccccc1F)CCNc1cc(N2CCCC2)nc(N2CCCC2)n1 [Example 42, N-{2-[{2-[(2,6-dipyrrolidin-1-ylpyrimidin-4-yl)amino]ethyl}(methyl)amino]ethyl}-N′-(2-fluorophenyl)thiourea] | ≤ 10
CN(CCNC(=S)Nc1ccc(Cl)cc1)CCNc1cc(N2CCC2)nc(N2CCC2)n1 [Example 75, N-(4-chlorophenyl)-N′-{2-[{2-[(2,6-diazetidin-1-ylpyrimidin-4-yl)amino]ethyl}(methyl)amino]ethyl}thiourea] | ≤ 10
CNCCCN(C)CCCN(C)c1cc(N2CCCC2)nc(N2CCCC2)n1 [Example 3, N-(2,6-dipyrrolidin-1-ylpyrimidin-4-yl)-N,N′-dimethyl-N′-[3-(methylamino)propyl]propane-1,3-diamine] | ≤ 10
CNS(=O)(=O)c1ccc(NC(=S)NCCN(C)CCNc2cc(N3CCCC3)nc(N3CCCC3)n2)cc1 [Example 59, 4-{[({2-[{2-[(2,6-dipyrrolidin-1-ylpyrimidin-4-yl)amino]ethyl}(methyl)amino]ethyl}amino)carbonothioyl]amino}-N-methylbenzenesulfonamide] | ≤ 10
CN(CCNC(=O)Nc1cccc2nsnc12)CCNc1cc(N2CCCC2)nc(N2CCCC2)n1 [Example 15, N-2,1,3-benzothiadiazol-4-yl-N′-{2-[{2-[(2,6-dipyrrolidin-1-ylpyrimidin-4-yl)amino]ethyl}(methyl)amino]ethyl}urea] | ≤ 10
CN(CCNC(=S)Nc1cccc(F)c1)CCNc1cc(N2CCCC2)nc(N2CCCC2)n1 [Example 39, N-{2-[{2-[(2,6-dipyrrolidin-1-ylpyrimidin-4-yl)amino]ethyl}(methyl)amino]ethyl}-N′-(3-fluorophenyl)thiourea] | ≤ 10
CN(CCNC(=S)Nc1ccc(-n2cccn2)cc1)CCNc1cc(N2CCCC2)nc(N2CCCC2)n1 [Example 48, N-{2-[{2-[(2,6-dipyrrolidin-1-ylpyrimidin-4-yl)amino]ethyl}(methyl)amino]ethyl}-N′-[4-(1H-pyrazol-1-yl)phenyl]thiourea] | ≤ 10
CN(CCNC(=S)Nc1cccc2ccccc12)CCNc1cc(N2CCCC2)nc(N2CCCC2)n1 [Example 37, N-{2-[{2-[(2,6-dipyrrolidin-1-ylpyrimidin-4-yl)amino]ethyl}(methyl)amino]ethyl}-N′-1-naphthylthiourea] | ≤ 10
CN(CCNC(=NC#N)Nc1ccc(Cl)cc1)CCNc1cc(N2CCCC2)nc(N2CCCC2)n1 [Example 81, N-(4-chlorophenyl)-N″-cyano-N′-{2-[{2-[(2,6-dipyrrolidin-1-ylpyrimidin-4-yl)amino]ethyl}(methyl)amino]ethyl}guanidine] | ≤ 10
CN(CCNC(=S)Nc1ccc(S(=O)(=O)N2CCCCC2)cc1)CCNc1cc(N2CCCC2)nc(N2CCCC2)n1 [Example 27, N-{2-[{2-[(2,6-dipyrrolidin-1-ylpyrimidin-4-yl)amino]ethyl}(methyl)amino]ethyl}-N′-[4-(piperidin-1-ylsulfonyl)phenyl]thiourea] | ≤ 10
CN(CCNC(=S)Nc1ccc(Oc2ccccc2)nc1)CCNc1cc(N2CCCC2)nc(N2CCCC2)n1 [Example 30, N-{2-[{2-[(2,6-dipyrrolidin-1-ylpyrimidin-4-yl)amino]ethyl}(methyl)amino]ethyl}-N′-(6-phenoxypyridin-3-yl)thiourea] | ≤ 10
CN(CCNC(=S)Nc1ccc(S(=O)(=O)c2ccc(Br)cc2)cc1)CCNc1cc(N2CCCC2)nc(N2CCCC2)n1 [Example 60, N-{4-[(4-bromophenyl)sulfonyl]phenyl}-N′-{2-[{2-[(2,6-dipyrrolidin-1-ylpyrimidin-4-yl)amino]ethyl}(methyl)amino]ethyl}thiourea] | ≤ 10
CN(CCNC(=S)Nc1ccc(S(=O)(=O)Nc2ccccc2)cc1)CCNc1cc(N2CCCC2)nc(N2CCCC2)n1 [Example 62, 4-{[({2-[{2-[(2,6-dipyrrolidin-1-ylpyrimidin-4-yl)amino]ethyl}(methyl)amino]ethyl}amino)carbonothioyl]amino}-N-phenylbenzenesulfonamide] | ≤ 10
CN(C)CCCCCNc1cc(N2CCCC2)nc(N2CCCC2)n1 [Example 5, N′-(2,6-dipyrrolidin-1-ylpyrimidin-4-yl)-N,N-dimethylpentane-1,5-diamine] | ≤ 10
COc1cc(NC(=S)NCCN(C)CCNc2cc(N3CCCC3)nc(N3CCCC3)n2)cc(OC)c1OC [Example 38, N-{2-[{2-[(2,6-dipyrrolidin-1-ylpyrimidin-4-yl)amino]ethyl}(methyl)amino]ethyl}-N′-(3,4,5-trimethoxyphenyl)thiourea] | ≤ 10
CN(CCNC(=S)NCc1ccco1)CCNc1cc(N2CCCC2)nc(N2CCCC2)n1 [Example 29, N-{2-[{2-[(2,6-dipyrrolidin-1-ylpyrimidin-4-yl)amino]ethyl}(methyl)amino]ethyl}-N′-(2-furylmethyl)thiourea] | ≤ 10
CN(CCNC(=O)Nc1ccc(Cl)cc1)CCNc1cc(N2CCCC2)nc(N2CCCC2)n1 [Example 16, N-(4-chlorophenyl)-N′-{2-[{2-[(2,6-dipyrrolidin-1-ylpyrimidin-4-yl)amino]ethyl}(methyl)amino]ethyl}urea] | ≤ 10
CN(CCNc1cc(N2CCCC2)nc(N2CCCC2)n1)CCNS(=O)(=O)c1ccc(C(F)(F)F)cc1 [Example 89, N-{2-[{2-[(2,6-dipyrrolidin-1-ylpyrimidin-4-yl)amino]ethyl}(methyl)amino]ethyl}-4-(trifluoromethyl)benzenesulfonamide] | ≤ 10
CN(CCNC(=S)Nc1ccc(N2CCOCC2)nc1)CCNc1cc(N2CCCC2)nc(N2CCCC2)n1 [Example 32, N-{2-[{2-[(2,6-dipyrrolidin-1-ylpyrimidin-4-yl)amino]ethyl}(methyl)amino]ethyl}-N′-(6-morpholin-4-ylpyridin-3-yl)thiourea] | ≤ 10
CN(C)CCN(C)c1cc(NCCN(C)CCNC(=S)Nc2ccc(Cl)cc2)nc(N(C)CCN(C)C)n1 [Example 64, N-{2-[[2-({2,6-bis[[2-(dimethylamino)ethyl](methyl)amino]pyrimidin-4-yl}amino)ethyl](methyl)amino]ethyl}-N′-(4-chlorophenyl)thiourea] | ≤ 10
CN(CCNC(=S)Nc1ccc(F)cc1)CCNc1cc(N2CCCC2)nc(N2CCCC2)n1 [Example 24, N-{2-[{2-[(2,6-dipyrrolidin-1-ylpyrimidin-4-yl)amino]ethyl}(methyl)amino]ethyl}-N′-(4-fluorophenyl)thiourea] | ≤ 10
CN(CCCN)CCCNc1cc(N2CCCC2)nc(N2CCCC2)n1 [Example 2, N-(3-aminopropyl)-N′-(2,6-dipyrrolidin-1-ylpyrimidin-4-yl)-N-methylpropane-1,3-diamine] | ≤ 10
CN(CCNC(=S)Nc1ccc(Oc2ccc([N+](=O)[O-])cc2)cc1)CCNc1cc(N2CCCC2)nc(N2CCCC2)n1 [Example 45, N-{2-[{2-[(2,6-dipyrrolidin-1-ylpyrimidin-4-yl)amino]ethyl}(methyl)amino]ethyl}-N′-[4-(4-nitrophenoxy)phenyl]thiourea] | ≤ 10
